Test results taken from PubChem BioAssay AID1458 (National Center for Advancing Translational Sciences (NCATS), 2008).
About 5,900 (2.8%) of roughly 210,000 compounds were called active. Inconclusive results (about 5%) are left out. Calls come from the whole dose curve; as a rule, active = well fitted activation curve with a large enough effect; inconclusive = small, poorly fitted or top-dose-only effect; inactive = no such curve, though single readings can be large or run the other way. Only a part is listed here, and it is no random draw. Entries without a call were filed so in the source.

Assay: qHTS Assay for Enhancers of SMN2 Splice Variant Expression; note: nearly all actives have a fitted effect of over 55% in size; for activity change, positive = activation: % of control where 0% means no effect
Conditions: HEK293 SMN2-luciferase splicing reporter, luminescence, 30-36 h; activity change, positive = activation: at 46.1 µM (top of the series) unless noted
Method in brief: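 HEK293 cells carry an SMN2 […]–luciferase reporter in which exon 7 inclusion puts luciferase in frame. Cells were plated 10-12 h before compound addition, then incubated 30-36 h at 37C. ONE-Glo luminescence was read; sodium butyrate at 4.5 mM final served as control.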
Potency is the fitted concentration of half-maximal effect.

Row | SMILES | activity change, positive = activation | Potency
1 | COc1ccccc1N1CCN(C2=Nc3cccc4cccc2c34)CC1 | 55.6% | –
2 | C=CCOc1cccc(C2/C(=C(\O)c3ccc(F)cc3)C(=O)C(=O)N2CCN(C)C)c1 (stereo not given) | 24.9% | –
3 | COc1nc(NCCN2CCOCC2)nc(Nc2ccccc2)n1 | 43.1% | –
4 | COc1ccc(CCC(=O)N2CCN(C3CCCCC3)CC2)cc1 | 47.1% | –
5 | CCN1CCN(Cc2ccc(NC(=O)Nc3ccccc3OC)cc2)CC1 | 130% | –
6 | NC1=NC(=Nc2cccc(Cl)c2)c2ccccc21 | -44.9% | –
7 | COc1cccc(NC(=O)COC(=O)c2c(F)cccc2Cl)c1 | 62.1% | –
8 | O=C(N/N=C/c1ccc(OC(F)F)cc1)C1=COCCO1 | – | active: 11.2 µM
9 | COc1ccc(-c2cc(=O)c3ccccc3o2)cc1 | – | active: 10 µM
10 | O=C(Nc1nc2ccccc2[nH]1)c1ccc(Br)o1 | – | active: 12.6 µM
11 | O=C(/C=C/c1ccc(O)c(O)c1)NC(=O)c1ccccc1O | – | active: 31.6 µM
12 | CCOC(=O)c1sc(NC(=O)c2cc(-c3ccccc3)nc3ccccc23)c(C#N)c1C | inactive: -52% | –
13 | O=[N+]([O-])c1ccccc1CSc1nnc2ccccn12 | 188% | –
14 | COc1ccc(C(=O)Nc2ccc(-c3ccc(C)o3)cc2)cc1S(=O)(=O)N1CCOCC1 | -69.1% | –
15 | O=C(Nc1ccc2c(c1)OCO2)c1c(F)cccc1F | – | active: 10 µM
16 | Cc1ccc(S(=O)(=O)NCCCN2CCOCC2)cc1C | 38% | –
17 | C=CCN1C(=O)/C(=C\c2ccc(C)cc2)N=C1SCC(=O)NCCC | 30.3% | –
18 | COC(=O)Cc1ccc(NC(=S)N2CCN(c3ccc(OC)cc3)CC2)cc1 | inactive: -46.1% | –
19 | CCOC(=O)C1CCN(C(=S)Nc2ccc(CC)cc2)CC1 | -63.7% | –
20 | CC(OC(=O)c1cc(=O)[nH]c2ccccc12)c1ccccc1 (stereo not given) | 45.5% | –
21 | Nc1[nH]c(N=NC(=O)c2ccc(F)cc2)c2ccccc12 | 109% | –
22 | Cc1cc(/C=N/NC(N)=O)c(C)n1-c1ccc(F)cc1 | inactive: -28.2% | –
23 | O=C(NCCCN1CCCC1=O)c1cccc(C(F)(F)F)c1 | 35.4% | –
24 | O=C(N/N=C/c1cc2c3c(c1O)CCCN3CCC2)c1ccccc1O | inactive: -102% | –
25 | COc1cccc(-c2cn3nc(C)c(C)nc3n2)c1 | – | active: 12.6 µM
26 | O=C(O)CCCN1C(=O)NC2NC(=O)NC21 (stereo not given) | 34.9% | –
27 | COc1cccc(C(=O)c2c(C)c(CCC#N)n3ccccc23)c1OC | 47.3% | –
28 | O=C(COc1ccc(Cl)cc1)N1CCN(C(=O)c2cccc(F)c2)CC1 | 30.1% | –

3 compounds from above, ordered by SMILES length, largest number first.
Row | SMILES | activity change, positive = activation | Potency
21 | Nc1[nH]c(N=NC(=O)c2ccc(F)cc2)c2ccccc12 | 109% | –
19 | CCOC(=O)C1CCN(C(=S)Nc2ccc(CC)cc2)CC1 | -63.7% | –
16 | Cc1ccc(S(=O)(=O)NCCCN2CCOCC2)cc1C | 38% | –

Remaining list, next part:

Row | SMILES | activity change, positive = activation | Potency
29 | CCCCc1ccc(NC(=O)C(=O)NCCN2CCN(Cc3ccc([N+](=O)[O-])cc3)CC2)cc1 | inactive: -77.1% | –
30 | COc1ccc(Oc2ccc(/C=C/C(=O)c3cccc(OC)c3)cc2[N+](=O)[O-])cc1 | inactive: -33.1% | –
31 | CCC(=O)N/C(=N/c1nc(C)cc(C)n1)Nc1cccc(OC)c1 | inactive: -19.3% | –
32 | COc1ccc(CN(C(=O)c2nsc(Cl)c2Cl)C(C(=O)NC2CCCC2)c2ccc(OC)cc2)cc1 (stereo not given) | -32.8% | –
33 | O=c1c2c(nc3nc(Cc4ccccc4)[nH]n13)CCC2 | 58.9% | –
34 | Cc1cnc(NC(=O)CC2CCCC2)s1 | – | active: 17.8 µM
35 | COCCCNC(=O)c1ccccc1NS(=O)(=O)c1ccc(C)cc1 | 37.6% | –
36 | O=[N+]([O-])/C=C\c1ccc(N2CCCC2)c(F)c1 | – | active: 5.62 µM
37 | COc1ccc(Cl)cc1N(CC(=O)NC(C(C)C)C(C)C)S(C)(=O)=O | 5.13% | –
38 | N#CC1(C#N)COC23CCCCC2C1(C#N)C(=N)O3 (stereo not given) | -88.3% | –
39 | COC(=O)c1cccc(NC2CC(=O)N(c3ccc(OC)c(OC)c3)C2=O)c1 (stereo not given) | 56.2% | –
40 | COc1ccc(NC(=S)Nc2ncccc2C)cc1OC | – | active: 35.5 µM
41 | Cc1ccccc1CSc1nnc(C)n1N | 38.8% | –
42 | CC(=O)c1c(C)[nH]c(C(=O)NC2=NCCS2)c1C | 91% | –
43 | O=C(CSc1nc(-c2ccccc2)cs1)Nc1cccc([N+](=O)[O-])c1 | -57.2% | –
44 | Cc1cc(C(C)(C)C)cc(S(=O)(=O)NCC(=O)O)c1C | 42.8% | –
45 | O=C(CNc1ccccc1OC(F)F)N1CCc2ccccc21 | – | active: 14.1 µM
46 | Cc1ccc(-c2nnc(-c3ccc(NC(=O)Cc4cccs4)cc3)o2)cc1 | -36% | –
47 | CCCCS(=O)(=O)Nc1ccc2ncn(C)c(=O)c2c1 | 29.5% | –
48 | CC(C)c1nc(SCC(=O)N2CCN(c3ccccc3)CC2)c2c(=O)n(C)c(=O)n(C)c2n1 | -55.3% | –
49 | Nc1nc2ccccc2n1C(=O)c1ccco1 | – | active: 12.6 µM
50 | CC(=O)c1cccc(NS(=O)(=O)N2CCCCC2)c1 | 19.9% | –
51 | CCOc1ccccc1-n1c(SCC(N)=O)nnc1-c1ccco1 | 41.4% | –
52 | CNc1ccc(/C=C(\C#N)c2ccccn2)cc1[N+](=O)[O-] | – | active: 10 µM
53 | O=C(CNC(=S)NC(=O)c1cccs1)c1ccccc1 | 126% | –
54 | Cc1ccc(CSCCNC(=O)/C=C/c2ccccc2Cl)cc1 | 27.3% | –
55 | COc1ccc(-c2cc(=O)[nH]c(NCc3ccccc3)n2)cc1 | 42.7% | –
